Reference: PubChem BioAssay AID540276 (National Center for Advancing Translational Sciences (NCATS), 2011)
Out of some 300,000 compounds screened, about 5,400 (1.8%) were called active. Inconclusive results, whose numbers are uncertain, are shown with a selection of clear calls. Calls follow the shape of the full dose curve; tested in HEK293 cells. Potencies of inconclusive entries are doubtful fits and often do not repeat.

Experiment: qHTS for inhibitors of binding or entry into cells for Marburg Virus
Conditions: Marburg virus pseudotyped entry inhibition, cell reporter; series mostly up to 37.8 µM
Potency is read from the fitted curve at half-maximal effect.

Structure (SMILES) | Potency
OCCC1CN(CC2CCCCC2)CCN1C1CCCC1 (stereo not given) | inconclusive: 12.6 µM [inhibitor, partial curve, poor fit]
COc1ccc(NC(=O)CSc2ccc(-c3ccccn3)nn2)cc1OC | inconclusive: 35.5 µM [inhibitor, single point]
CCN(CC)c1ccc(/C=N/NC(=O)OC(C)(C)C)cc1 | inactive
O=C(O)C/C(=C\c1ccc2c(c1)OCO2)c1nc2ccccc2s1 | inactive
CSc1ncccc1C(=O)OCC(=O)Nc1ccc2c(c1)OCO2 | inactive
CC1=C2C3OC(=O)C(C)C3CCC2(C)C=CC1=NO (stereo not given) | inactive
COc1ccc(CNc2nc3c(c(=O)n(C)c(=O)n3C)n2Cc2ccccc2Cl)cc1 | inactive
COc1ccc(C)cc1NC(=O)c1ccc2c(c1)CCN2S(=O)(=O)c1ccc(Cl)cc1 | inconclusive: 4.47 µM [inhibitor, full curve, poor fit]
CN(C)C(=O)Oc1ccc(Br)c2ccccc12 | inactive
COc1ccc(NCc2n[nH]nc2-c2ccccc2)cc1Cl | inconclusive: 11.2 µM [inhibitor, partial curve, poor fit]
COc1ccccc1NC(=O)CSc1nnc(C)o1 | inconclusive: 35.5 µM [activator, single point]
COc1ccc(-c2noc(-c3ccccc3-c3ccccc3)n2)cc1 | inactive
COc1ccc(-c2nn(-c3ccccc3)cc2C(=O)N2CCN(S(=O)(=O)c3cccc(F)c3)CC2)cc1 | inconclusive: 35.5 µM [inhibitor, single point]
CCCCn1c(O)c(C=NC2CC3CCC2(C)C3(C)C)c(=O)[nH]c1=O (stereo not given) | inconclusive: 29.1 µM [inhibitor, single point]
O=C1CN(S(=O)(=O)c2cccc(Cl)c2Cl)c2ccccc2N1 | inactive
CCCn1c(=S)[nH]c2cc(C(=O)N3CCc4ccccc43)ccc2c1=O | inconclusive: 29.1 µM [inhibitor, single point]
Cc1ccccc1Nc1oc(-c2ccccc2)nc1CCc1ccccc1 | inconclusive: 0.335 µM [inhibitor, partial curve, poor fit]
CCCCC1=CC2=C(c3ccco3)C(=O)C(C)(OC(=O)c3ccc(OC)cc3)C(=O)C2=CN1CCCCO (stereo not given) | inconclusive: 0.0944 µM [inhibitor, full curve, poor fit]
COc1cc(C(=O)N/N=C(\Cc2ncc[nH]2)c2ccccc2)cc(OC)c1OC | inconclusive: 31.6 µM [inhibitor, single point]
Cc1cc(C(=O)Oc2cccnc2)ccc1[N+](=O)[O-] | inconclusive: 14.1 µM [activator, single point]

Laid out differently: entries from further up.
Structure (SMILES)	Potency
CCN(CC)c1ccc(/C=N/NC(=O)OC(C)(C)C)cc1	inactive
O=C(O)C/C(=C\c1ccc2c(c1)OCO2)c1nc2ccccc2s1	inactive
